The record followed here is patent US20260258115A1.

The target of the assay is RSV postfusion F (postF), subtype B (respiratory syncytial virus, subtype B). In words: BLI, IgG. (In general: In BLI a coated tip is dipped into the sample, and binding shifts an interference pattern.)

These are yes or no findings as the source states them, for the method shown.

B1: ADI-20978 (antibody, V domains shown)
VH: EVQLVESGAEVKKPGASVKVSCKASGYTFGNYGISWVRQAPGQGLEWMGWISAYNGNSNYAQKFQGRVTMTTDTSASTAYMEVRSLRSDDTAVYYCARDVPVTAARLLDYWGQGTLVTVSS
VL: DIVLTQTPLSLPVTLGQPASISCRSSQSLVYSDGNTYLSWFQQRPGQSPRRLIYKVSNRDSGVPDRFSGSGSGTDFTLKISRVEAEDVGVYYCMQATDWLGYTFGQGTKLEIK
Take B1: the binding result is “no binding”.

B2: ADI-14601 (antibody, V domains shown)
VH: EVQLLESGGGLVQPGGSLRLSCAASGFTFSSYAMNWVRQAPGKGLEWVSTISGSGSSTYYADSVEGRFTISRDNSKNTLYLQMNSLRAEDTAIYYCAKEPRDMYIQQWLDSWGQGTLVTVSS
VL: GIRLTQSPSSVSASVGDRVIITCRASQGIRSWLAWYQQKPGKAPKLLIYAASRLQSGVPSRFSGSGSETDFTLTISSLQPEDFASYYCQQANSFPLTFGGGTKVEIK
On to B2, for which the binding result was “no binding”.

B3: ADI-14403 (antibody, V domains shown)
VH: QVQLVESGGGLGKPGGSLRLSCAASGFTFSGYYMSWIRQAPGKGLEWVSDISSGSSFTNYADSVKGRFTISRDNAKNSLYLQMNSLKAEDTAVYYCARVPPDSYGSGSYSGDSWGQGTLVTVSS
VL: QSVVTQPPSVSGAPGQRVTISCTGSSSNIGAGYGVHWYQQLPGTAPKLLIYGNTNRPSGVPDRISGSKSGTSASLVITGLQAEDEADYYCQSYDSSLSGWVFGGGTKLTVL
B3: the binding result is “no binding”.

B4: ADI-14586 (antibody, V domains shown)
VH: QVQLVQSGGGLVKPGGSLRLSCAASGFTFSDYYMSWIRQAPGKGLEWVSYISSSSSYTNYADSVKGRFTISRDNAKNSLYLQMNSLRAEDTAVYYCAKRTEYCSSTGCAYYFDYWGQGTLVTVSS
VL: QSVVTQPPSVSGAPGQRVTISCTGSSSNIGAGYDVHWYQQLPGTAPKLLIYGNSNRPSGVPDRFSGSKSGTSASLAITGLQAEDEADYYCQSYDSSLSGSVFGGGTKVTVL
With B4, the binding result is recorded as “no binding”.

B5: ADI-14587 (antibody, V domains shown)
VH: EVQLLESGGGLVKPGGSLRLSCAASGFTLTSYSMNWVRQAPGKGLEWVSSISSSSSYIHYADSVKGRFTISRDNAKNSLYLQMNSLRAEDTAVYYCAGSSLYPPFFDYWGQGTLVTVSS
VL: QSVVTQPPSVSGAPGQRVTISCTGSSSNLGAGYDVHWYQQLPGTAPKLLIYGNNNRPSGVPDRFSGSKSGTSASLAITGLQAEDEADYYCQSYDSSLSSVVFGGGTKLTVL
Consider B5, for which the binding result was “no binding”.

B6: ADI-14428 (antibody, V domains shown)
VH: EVQLLESGGGLVKPGGSLRLSCAASGFTFSDHYMSWIRQAPGKGLEWVSYISSTSSFTNYADSLKGRFTISRDNAKNSLYLQMNSLRAEDTAVYYCARPYIVALGTRAFDIWGQGTTVTVSS
VL: SYVLTQPPSVSVAPGKTARITCGGNNIGSKTVHWYQQKPGQAPVLVSYYDSDRPSGIPERFSGSNSGNTATLTISRVEAGDEADYYCQVWDGSSEHYVFGTGTKVTVL
On to B6, for which the binding entry was “no binding”.

B7: ADI-14591 (antibody, V domains shown)
VH: QVQLVQSGAEVKKPGESLRISCTGSGYTFTNYWISWVRQMPGKGLEWMGRIDPTDSYTNYSPSFQGHVTISADKSISTAYLQSSSLKASDTATYYCARHRRLVPAAMSRGYYGMDVWGQGTTVTVSS
VL: EIVMTQSPSSLSASVGDRATITCRASQSISSYLNWYQQKPGKAPKLLIYAASNLQSGAPSRFSGSGSGTDFTLTISSLQPEDFATYFCQQTYSTPYTFGQGTKVEIK
With B7, the binding entry is on record as “no binding”.

B8: ADI-14603 (antibody, V domains shown)
VH: QVQLVQSGAEVKKPGESLKISCKGSGYTFTNYWIGWVRQMPGKGLEWMGIIYPGDSDTRYSPSFQGQVTISADKSITTAYLQWRVLKASDTAMYYCATMRGSSSHFHHWGQGTLVTVSS
VL: DIQVTQSPSSLSASVGDRVTITCRAGQGIGNYLAWYQQKPGKVPKVLIYAASTLQSGVPSRFSGSGSGTEFTLTISSLQPEDVATYYCQKYNNAPYAFGQGTRLEIK
For the molecule B8, the binding entry is recorded as “no binding”.

B9: ADI-20966 (antibody, V domains shown)
VH: EVQLLESGGGLGKPGGSLRLSCAASGFKLSSYYMHWVRQAPGKGPEWVSSISASSSYINYADSVRGRFTVSRDNAKNSLFLQMNSLRVDDTAIYYCARGAPLTNFGMVLDSWGQGTLVTVSS
VL: QSVLTQPPSVSGAPGQRVTISCTGSGSNIGAGYDVHWYQQVPGRVPKLLIYANNNRPSGVPDRFSGSKSGTSASLAITGLQADDEADYYCQSYDRSLNVVFGGGTKLTVL
Regarding B9, the binding entry is recorded as “no binding”.

B10: ADI-14412 (antibody, V domains shown)
VH: QVQLVQSGAEVKKPGASVKVSCKASGYTFTRYGISWVRQAPGQGLEWMGWISDYNGNTKNAEKFQGRVTMTTDTYTNIAYMELRSLRSDDTAVYYCARDWWITVGGIIAPFDYWGQGTLVTVSS
VL: ETTLTQSPGTLSLSPGERATLSCRASQSVSSDYLAWFQQKPGQAPRLLIYGASSRATDIPDRFSGSGSGTDFTLTISRLESEDFAVYYCLHYAGARTFGQGTKVEIK
As to B10, the binding entry is reported as “no binding”.

B11: ADI-14588 (antibody, V domains shown)
VH: QVQLVQSGAEVKKPGASVKVSCKVSGDTLTELSIHWVRQAPGKGHEWMGYFDHEDGEIMYAQKFQGRVTMTGDTSTDTAYMELSSLRSEDTAVYYCATVAAAGQFDYWGQGTLVTVSS
VL: DIQLTQSPSSLSASVGDRVTITCRARQSISTYLNWYQQKPGKAPKLLIYAASSLQSGVPSRFSGSGSGTDFTLTISSLQPEDFATYYCQQSYSSPYTFGQGTKVDIK
With B11, the binding result is on record as “no binding”.

B12: ADI-14402 (antibody, V domains shown)
VH: QVQLVQSGAEVKKPGASVKVSCKTSGYTFTNYGISWVRQAPGQGLEWMGWISAYNGNRNYAQKLQGRVTMTTDTSTSTAYMELRSLRSDDTAVYYCAREPPVIAAGDFSHWGQGTLVTVSS
VL: EIVLTQSPLSLPVTLGQPASISCRSSQSLVHSDANTYLSWFQQRPGQSPRRLIYKVSNRDSGVPDRFSGSGSGTDFTLKISRVEAEDVGVYYCMQGTHWPPDFGQGTRLEIK
B12: the binding result was “no binding”.

B13: ADI-14585 (antibody, V domains shown)
VH: QVQLVQSGAEVKKPGASVKVSCKASGYTFANYGIGWVRQAPGQGLEWMGWISAYNGKTNYAQKFQGRVTMTTDTSTSTAYMELRSLRSDDTAVYYCAREPPVIAAGDFPHWGQGTLVTVSS
VL: ETTLTQSPLSLPVTLGQPASISCRSSQSLEHSDLNTYLSWFQQRPGQSPRRLIYKVSNRDSGVPDRFSGSGSGTDFTLRISRVEAEDVGVYYCMQGTHWPPDFGQGTRLEIK
In the case of B13, the binding result was “no binding”.

B14: ADI-14424 (antibody, V domains shown)
VH: QVQLVQSGAEVKKPGESLKISCKGPDSSFSVYWIAWVRQMPGKGLEWMGVIYVGDSDTRYSPSFRGQVTISADKSMNTAYLQWSSLKASDTAMYFCARHIPPGPFDLWGQGTMVTVSS
VL: NFMLTQPHSVSASPGKTITISCTRSSGSIASNSVQWYQQRPGSAPTNVIYEDDQRPLGVPNRFSGSIDSSSNSASLTISGLKTEDEADYYCHSYHNSDQVFGGGTKLTVL
On to B14, for which the binding result is “no binding”.

B15: ADI-14582 (antibody, V domains shown)
VH: QVQLVQSGAEVKKPGESLKISCKGPDSSFSVYWIAWVRQMPGKGLEWMGVIYVGDSDTRYSPSFRGQVTISADKSINTAYLQWSSLKASDTAMYFCARHIPPGPFDLWGQGTTVTVSS
VL: NFMLTQPHSVSASPGKTITISCTRSSGSIASNSVQWYQQRPGSAPTNVIYEDNQRPLGVPNRFSGSIDSSSNSASLTISGLKTEDEADYYCQSYHSSDQVFGGGTKVTVL
Turning to B15, the binding result is listed as “no binding”.
